Data published in US20200190194A1 (GlaxoSmithKline, published 2020).
Results are given in words; binding and its absence hold for the method and conditions named. Some entries that bind do so weakly or less than the wild type. For some assays here: Where a sequence is shown, tags or fusion partners need not be part of it.

How the values were obtained:
[1] = molecular target: T1, rabbit Fc-tagged recombinant extracellular human ICOS (human) (UniProt Q9Y6W8); assay: SPR (Biacore), FIG. 15A
T1 sequence: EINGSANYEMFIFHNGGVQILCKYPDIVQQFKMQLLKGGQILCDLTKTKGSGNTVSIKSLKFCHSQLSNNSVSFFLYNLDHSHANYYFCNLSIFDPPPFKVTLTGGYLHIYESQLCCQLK

[2] = molecular target: human ICOS on activated human T cells (human) (UniProt Q9Y6W8); assay: flow cytometry, FIG. 15C
[3] = molecular target: human ICOS on activated human T cells (human) (UniProt Q9Y6W8); assay: flow cytometry, detected with anti-human IgG kappa light chain FITC
[4] = molecular target: human ICOS on activated human T cells (human) (UniProt Q9Y6W8); assay: flow cytometry ex vivo, human PBMC engrafted NSG mice with A549 tumors
[5] = molecular target: human ICOS on activated human T cells (human) (UniProt Q9Y6W8); assay: flow cytometry ex vivo with PE conjugated mouse anti human IgG4, FIG. 27
[6] = molecular target: human ICOS on activated human T cells (human) (UniProt Q9Y6W8); assay: flow cytometry, H2L5 at 20 µg/mL on naive and activated CD4+ and CD8+ T cells of healthy donors
[7] = molecular target: human ICOS on activated human T cells (human) (UniProt Q9Y6W8); assay: live fluorescence microscopy: labeled H2L5 at 3 µg/mL on anti-CD3 pre-stimulated human T cells co-cultured with dendritic cells
[8] = molecular target: human ICOS on activated human T cells (human) (UniProt Q9Y6W8); assay: flow cytometry ex vivo with PE anti-human IgG4 on CD8 T cells of human-PBMC NSG mice bearing A549 tumors, after dosing with H2L5
[9] = molecular target: T2, recombinant ICOS protein (R&D Systems) (human) (UniProt Q9Y6W8); assay: MSD competition assay: coated recombinant ICOS, H2L5 titrated, then 1 µg/mL human ICOS ligand (B7-H2) detected with biotinylated anti-ICOS-L
T2 sequence: T1 sequence

[10] = molecular target: human ICOS on activated human T cells (human) (UniProt Q9Y6W8); assay: flow cytometry of whole blood of human PBMC engrafted NSG mice with A549 tumors, 48 hours after the 4th dose; bound antibody detected with PE mouse anti-human IgG4 [D00062 FIG. 27A CONT.]
[11] = molecular target: human ICOS on activated human T cells (human) (UniProt Q9Y6W8); assay: flow cytometry of tumor tissue of human PBMC engrafted NSG mice with A549 tumors, 48 hours after the 4th dose; bound antibody detected with PE mouse anti-human IgG4 [D00063 FIG. 27B CONT.]

Measured: binding

B1: H2L5 IgG4PE (antibody, V domains shown)
VH: QVQLVQSGAEVKKPGSSVKVSCKASGYTFTDYAMHWVRQAPGQGLEWMGLISIYSDHTNYNQKFQGRVTITADKSTSTAYMELSSLRSEDTAVYYCGRNNYGNYGWYFDVWGQGTTVTVSS
VL: EIVLTQSPATLSLSPGERATLSCSASSSVSYMHWYQQKPGQAPRLLIYDTSKLASGIPARFSGSGSGTDYTLTISSLEPEDFAVYYCFQGSGYPYTFGQGTKLEIK
notes: Human IgG4 with Fc mutations S228P and L235E (EU numbering), called IgG4PE; humanized variant of murine clone 422.2; also called ICOS IgG4PE; H2L5 (ICOS) IgG4PE
binds: all assays above
